{
  "source": "patent US20060148763A1",
  "about": "“Compounds and methods for regulating triglyceride levels” (priority 2005, published 2006)",
  "system": "serum triglyceride levels",
  "test": "Rabbit hypercholesteremic model (2% cholesterol diet, 7 weeks): serum triglycerides",
  "type": "in vivo, Male New Zealand white rabbits",
  "protocol": "The anti-atherogenic effects of P5P alone and in combination with simvastatin in a rabbit hypercholesteremic model were determined. The study compared the effects of P5P and simvastatin alone and in combination on atherosclerotic lesion formation, lipid profile (total cholesterol, LDL, HDL, triglycerides and oxidized LDL), homocysteine levels and various markers of inflammation (CRP, IL-1β, IL-6, IFN-γ and TNF-α).\nAnimals—Male New Zealand white rabbits 2.0-3.0 kg.\nAnimal Feed—The normocholesterol diet is Co-op Complete Rabbit Feed manufactured by Federated Co-operatives Limited (Saskatchewan). The 2% cholesterol diet is Test Diet 0009459 MRab/2% Chol 3/16 manufactured by Purina Mills (USA).\nThe rabbits were fed the normocholesterol and 2% cholesterol diet ad libitum. All animals received a timothy cube after blood sampling. […]\nGroup 3: Hypercholesterol diet+P5P 10 mg/kg/day\nGroup 4: Hypercholesterol diet+simvastatin 5 mg/kg/day\nGroup 5: Hypercholesterol diet+P5P 10 mg/kg/day+simvastatin 5 mg/kg/day\nThe rabbits were fed a normocholesterol or hypercholesterol diet for a total of 7 weeks. […]\nAt 7 weeks, the animals were anesthetized and 10 ml of blood was collected. […] The hearts and aortas were frozen in liquid nitrogen or an ethanol dry ice bath and stored at −80° C. until analyzed. […]",
  "note": "For at least one compound, name, drawing or mass did not settle the structure.",
  "data": [
    {"smiles": "CCC(C)(C)C(=O)O[C@H]1C[C@@H](C)C=C2C=C[C@H](C)[C@H](CC[C@@H]3C[C@@H](O)CC(=O)O3)[C@H]21", "note": "[Simvastatin, simvastatin, reference compound]", "values": [
      {"measurement": "average serum triglyceride levels as fraction of the levels observed in the control rabbits", "setting": "end of the 7 week study period", "value": "about ½"},
      {"measurement": "effect on serum triglyceride levels vs untreated control rabbits", "setting": "rabbits fed the hypercholesterol diet, 7 weeks", "value": "effective in reducing serum triglyceride levels"}
    ]}
  ]
}
